Data from US9303092B2, “Methamphetamine-like hapten compounds, linkers, carriers and compositions and uses thereof” (The Board of Trustees of the University of Arkansas, priority 2000, dated 2016).
“Also recorded” adds a separate entry of the source. For at least one compound, name, drawing or mass did not settle the structure.

Legend:
[1] = tested on: discriminative stimulus effects of (+)-methamphetamine; experiment: Drug discrimination in rats; settings: i.p., group III
[2] = tested on: discriminative stimulus effects of (+)-methamphetamine; experiment: Drug discrimination in pigeons; settings: i.m.

COC(=O)[C@H]1[C@@H](OC(=O)c2ccccc2)C[C@@H]2CC[C@H]1N2C [cocaine]
potency of cocaine relative to the amphetamines [1]: about one-tenth as potent
potency of cocaine relative to the amphetamines [2]: about one-third as potent; also recorded: slightly less potent
